Source: PubChem BioAssay AID1224830 (NIAID, 2016)
This is an unselected part of about 18,000 reagents. In the full data, about 2,900 (16%) are marked active. 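Calls are made per well; low scores hint the gene aids the LPS response, high scores that it dampens it.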 Repeated entries: four replicate wells of each siRNA pool.

Purpose: 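Regulators of TLR4 signalling towards TNF-alpha in macrophage-like cells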 (primary screen)
Cells: human THP-1 monocytic leukaemia cells, TNF dual-luciferase reporter clone, PMA-differentiated to macrophage-like cells
Reagent: siRNA pool against human genes, 50 nM
Duration: LPS for 4 h, given about 3 days after siRNA transfection
Challenge: bacterial LPS (TLR4 ligand), 10 ng/ml
Measured: 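Ratio of firefly to renilla light, scaled to the plate median and expressed as a robust z-score per replicate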
Scale: TNF reporter robust z-score: higher = stronger TNF reporter response to LPS
Call rule: 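a well is active when its z-score exceeds 2.8 or falls below -1.5; control wells carry no call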

NAPA (NSF attachment protein alpha)
- TNF reporter robust z-score: 1.73
- outcome: inactive

NAPA (NSF attachment protein alpha)
- TNF reporter robust z-score: 1.6
- outcome: inactive

NAPA (NSF attachment protein alpha)
- TNF reporter robust z-score: 1.49
- outcome: inactive

NAPA (NSF attachment protein alpha)
- TNF reporter robust z-score: 1.01
- outcome: inactive

GMDS (GDP-mannose 4,6-dehydratase)
- TNF reporter robust z-score: 2.68
- outcome: inactive

GMDS (GDP-mannose 4,6-dehydratase)
- TNF reporter robust z-score: 4.84
- outcome: active

GMDS (GDP-mannose 4,6-dehydratase)
- TNF reporter robust z-score: 2.74
- outcome: inactive

GMDS (GDP-mannose 4,6-dehydratase)
- TNF reporter robust z-score: 4.59
- outcome: active

TMEM254 (transmembrane protein 254)
- TNF reporter robust z-score: 2.81
- outcome: active

TMEM254 (transmembrane protein 254)
- TNF reporter robust z-score: 2.36
- outcome: inactive

TMEM254 (transmembrane protein 254)
- TNF reporter robust z-score: 0.93
- outcome: inactive

TMEM254 (transmembrane protein 254)
- TNF reporter robust z-score: 0.16
- outcome: inactive

ARL6 (ARF like GTPase 6)
- TNF reporter robust z-score: -1.17
- outcome: inactive

ARL6 (ARF like GTPase 6)
- TNF reporter robust z-score: -0.15
- outcome: inactive

ARL6 (ARF like GTPase 6)
- TNF reporter robust z-score: -0.64
- outcome: inactive

ARL6 (ARF like GTPase 6)
- TNF reporter robust z-score: -1.57
- outcome: active

ANO10 (anoctamin 10)
- TNF reporter robust z-score: -0.52
- outcome: inactive

ANO10 (anoctamin 10)
- TNF reporter robust z-score: 0.52
- outcome: inactive

ANO10 (anoctamin 10)
- TNF reporter robust z-score: -0.63
- outcome: inactive

ANO10 (anoctamin 10)
- TNF reporter robust z-score: 1.04
- outcome: inactive

Targets listed so far whose gene name begins with T or t (4):
TMEM254 (transmembrane protein 254)
- TNF reporter robust z-score: 2.81
- outcome: active

TMEM254 (transmembrane protein 254)
- TNF reporter robust z-score: 2.36
- outcome: inactive

TMEM254 (transmembrane protein 254)
- TNF reporter robust z-score: 0.93
- outcome: inactive

TMEM254 (transmembrane protein 254)
- TNF reporter robust z-score: 0.16
- outcome: inactive
